# ± gives the standard deviation of the averaged measurements. The list shows a part of the results. Single values are uncertain here, since repeats match poorly.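 The A. baumannii strains are clinical isolates chosen because they resist the partner antibiotic, and the screen looks for drugs that restore that antibiotic's effect. The reading at the start of incubation is subtracted to remove background from coloured compounds.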
# Test system: Acinetobacter baumannii NCTC-13301
# Experiment: percent growth inhibition of drug + antibiotic vs DMSO control; higher = more growth inhibition
# Protocol: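 Prestwick drugs tested at 20 uM and 7 uM with an antibiotic at 0.125x MIC (16 mg/L when MIC >128 mg/L) in cation-adjusted Mueller-Hinton broth, 384-well plates, duplicate runs on different days. Percent growth inhibition was computed from OD600 (24 h minus 0 h) relative to DMSO-only wells. Drug + 0.1% DMSO (no antibiotic) wells are also given. Only hits (max corrected inhibition > mean + 3SD) are listed. A. baumannii: NCTC-13301 was used for MEM/CIP/GEN/TGC and WP-487 for colistin. Duplicates with colistin are strongly discordant (run 2 near 100% for most drugs).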
smiles,measurement,setting,value
CCCCCC[C@H]1C(=O)O[C@H](C)[C@H](NC(=O)c2cccc(NC=O)c2O)C(=O)O[C@@H](C)[C@@H]1OC(=O)CC(C)C [Antimycin A],percent growth inhibition,"antibiotic (0.125x MIC): ciprofloxacin, 7 µM",-19.9 ± 2.5%
same,percent growth inhibition,"antibiotic (0.125x MIC): ciprofloxacin, 20 µM",-20.6 ± 0.096%
same,percent growth inhibition,"antibiotic (0.125x MIC): gentamicin, 7 µM",-97.1 ± 36%
same,percent growth inhibition,"antibiotic (0.125x MIC): gentamicin, 20 µM",-67.4 ± 13%
same,percent growth inhibition,"antibiotic (0.125x MIC): meropenem, 7 µM",-26.1 ± 24%
same,percent growth inhibition,"antibiotic (0.125x MIC): meropenem, 20 µM",-21.9 ± 9.7%
same,percent growth inhibition,"antibiotic (0.125x MIC): tigecycline, 7 µM",-6.29 ± 1.7%
same,percent growth inhibition,"antibiotic (0.125x MIC): tigecycline, 20 µM",-37.2 ± 50%

# Reference: the supplement of paper PMC6658780
